In patent US20090036380A1, “Composition And Method For Brain Tumor Therapy” (Yeda Research and Development Co., Ltd., priority 2006, published 2009):
These are yes or no findings as the source states them, for the method shown. Some results given as binding are weak or reduced against the parent protein; the word gives no strength.

T1: Karet PTB domain (RRS bait) (mouse) (UniProt Q8K2Y9)
T1 sequence: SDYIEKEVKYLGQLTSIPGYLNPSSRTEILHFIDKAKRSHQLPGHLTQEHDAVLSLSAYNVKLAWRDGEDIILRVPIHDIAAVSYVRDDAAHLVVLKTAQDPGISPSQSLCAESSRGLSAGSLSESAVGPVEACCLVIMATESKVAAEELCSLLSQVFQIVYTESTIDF

B1: Myeloid leukemia factor 2 (Mlf2), transcript variant1, mRNA (protein, mouse, UniProt Q99KX1 1-247, looked up)
chain: MFRFMRDVEPEDPMFLMDPFAIHRQHMSRMLSGGFGYSPFLSITDGNMPATRPASRRMQAGAVSPFGMLGMSGGFMDMFGMMNDMIGNMEHMAAGGNCQTFSSSTVISYSNTGDGAPKVYQETSEMRSAPGGIRETRRTVRDSDSGLEQMSIGHHIRDRAHILQRSRNHRTGDQEERQDYINLDESEAAAFDDEWRRETSRYRQQRPLEFRRHEASVGGGRRAEGPPRLAIQGPEDSPSRQSRRYDW
B2: Stathmin-like 3, mRNA (protein, mouse, UniProt O70166 1-180, looked up)
chain: MASTVSAYKEKMKELSVLSLICSCFYSQPHPNTIYQYGDMEVKQLDKRASGQSFEVILKSPSDLSPESPVLSSPPKRKDASLEELQKRLEAAEERRKTQEAQVLKQLAERREHEREVLHKALEENNNFSRLAEEKLNYKMELSKEIREAHLAALRERLREKELHAAEVRRNKEQREEMSG
B3: Granulin (Grn) (protein, mouse, UniProt P28798 18-589, looked up)
chain: TQCPDGQFCPVACCLDQGGANYSCCNPLLDTWPRITSHHLDGSCQTHGHCPAGYSCLLTVSGTSSCCPFSKGVSCGDGYHCCPQGFHCSADGKSCFQMSDNPLGAVQCPGSQFECPDSATCCIMVDGSWGCCPMPQASCCEDRVHCCPHGASCDLVHTRCVSPTGTHTLLKKFPAQKTNRAVSLPFSVVCPDAKTQCPDDSTCCELPTGKYGCCPMPNAICCSDHLHCCPQDTVCDLIQSKCLSKNYTTDLLTKLPGYPVKEVKCDMEVSCPEGYTCCRLNTGAWGCCPFAKAVCCEDHIHCCPAGFQCHTEKGTCEMGILQVPWMKKVIAPLRLPDPQILKSDTPCDDFTRCPTNNTCCKLNSGDWGCCPIPEAVCCSDNQHCCPQGFTCLAQGYCQKGDTMVAGLEKIPARQTTPLQIGDIGCDQHTSCPVGQTCCPSLKGSWACCQLPHAVCCEDRQHCCPAGYTCNVKARTCEKDVDFIQPPVLLTLGPKVGNVECGEGHFCHDNQTCCKDSAGVWACCPYLKGVCCRDGRHCCPGGFHCSARGTKCLRKKIPRWDMFLRDPVPRPLL
B4: Prothymosin alpha (protein, mouse, UniProt P26350 1-111, looked up)
chain: MSDAAVDTSSEITTKDLKEKKEVVEEAENGRDAPANGNAQNEENGEQEADNEVDEEEEEGGEEEEEEEEGDGEEEDGDEDEEAEAPTGKRVAEDDEDDDVDTKKQKTEEDD

How the values were obtained:
[1] = target: full length Karet protein (RRS bait) (mouse) (UniProt Q8K2Y9); assay: RRS screen in yeast, whole Karet protein against an embryonic mouse brain library
[2] = target: T1, Karet PTB domain (RRS bait) (mouse); assay: RRS screen in yeast, Karet PTB domain against an embryonic mouse brain library

Binder	binding [1]	binding [2]
B1	binds	–
B2	–	binds
B3	–	binds
B4	–	binds
